Read-out in test [1]: Interleukin-1 alpha (IL1a), IL1A (gene 3552)
As to the kind of experiment: BSK_KF3CT_IL1a: BioMAP Diversity Plus: KF3CT Assay for Interleukin-1 alpha (IL1a) Biomarker Activity (AID 2283070). Particulars: actives raise or lower the signal; primary human keratinocytes with fibroblasts. The method, boiled down:
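Primary human keratinocyte plus foreskin fibroblast co-culture, dosed and measured at 24 h in 96-well plates. IL-1a level quantified by ELISA; bidirectional fit relative to DMSO.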

The chains behind the UniProt entries cited, without tags or fusion partners. Where a name states a change or a piece, a line headed by the entry shows the natural chain unless it says otherwise.
UniProt P11509: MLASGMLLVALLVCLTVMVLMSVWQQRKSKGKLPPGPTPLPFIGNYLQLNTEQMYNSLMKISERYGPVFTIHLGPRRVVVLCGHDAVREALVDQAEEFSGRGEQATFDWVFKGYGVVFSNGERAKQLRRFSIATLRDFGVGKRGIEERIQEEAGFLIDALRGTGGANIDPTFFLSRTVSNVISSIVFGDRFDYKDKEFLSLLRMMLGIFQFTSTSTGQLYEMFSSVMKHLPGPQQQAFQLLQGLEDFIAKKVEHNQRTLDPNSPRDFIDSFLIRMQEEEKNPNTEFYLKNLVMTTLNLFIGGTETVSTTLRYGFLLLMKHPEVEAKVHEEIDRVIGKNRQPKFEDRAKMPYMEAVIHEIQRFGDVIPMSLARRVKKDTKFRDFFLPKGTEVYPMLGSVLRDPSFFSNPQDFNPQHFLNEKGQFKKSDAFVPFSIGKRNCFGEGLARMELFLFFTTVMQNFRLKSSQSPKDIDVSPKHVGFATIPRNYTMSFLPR

Read-out in test [2]: Transforming growth factor beta 1 (TGFb1), TGFB1 (gene 7040)
As to the kind of experiment: BSK_KF3CT_TGFb1: BioMAP Diversity Plus: KF3CT Assay for Transforming growth factor beta 1 (TGFb1) Biomarker Activity (AID 2283072). Particulars: actives raise or lower the signal; primary human keratinocytes with fibroblasts. Put shortly:
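Primary human skin cells (keratinocytes, foreskin fibroblasts) were co-cultured, exposed to test chemical and sampled at 24 h. TGF-b1 levels were measured by ELISA and fitted bidirectionally relative to DMSO.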

Read-out in test [3]: urokinase plasminogen activator (uPA), PLAU (gene 5328)
As to the kind of experiment: BSK_KF3CT_uPA: BioMAP Diversity Plus: KF3CT Assay for urokinase plasminogen activator (uPA) Biomarker Activity (AID 2283075). Particulars: actives raise or lower the signal; primary human keratinocytes with fibroblasts. Put shortly: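 Primary human keratinocyte/foreskin fibroblast co-culture exposed to chemical; uPA measured by ELISA at 24 h. Bidirectional fit versus DMSO, with parallel SRB total-protein staining for cytotoxicity.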

Read-out in test [4]: Monocyte Chemoattractant Protein-1 (MCP1), CCL2 (gene 6347)
As to the kind of experiment: BSK_SAg_MCP1: BioMAP Diversity Plus: SAg Assay for Monocyte Chemoattractant Protein-1 (MCP1) Biomarker Activity (AID 2283090). To be noted: actives raise or lower the signal; primary human HUVEC with PBMC. Put shortly: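 MCP-1 levels in the endothelial–PBMC SAg co-culture were quantified by ELISA at 24 h post-dosing; both increases and decreases versus DMSO scored. Cytotoxicity monitored by SRB total protein in parallel cultures.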

The target of test [5] is human CYP2A6, CYP2A6 (gene 1548) (UniProt P11509). As to the kind of experiment: NVS_ADME_hCYP2A6: NovaScreen (NVS) CYP450-related Enzyme Activity (ADME) Assay for human CYP2A6 (AID 2283099; active = hit-call score of the fitted dose curve at least 0.9, where 1 is the maximum). The method, boiled down: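 Cell-free fluorescence readout of recombinant human CYP2A6 expressed in insect cells, read 0.5 h after dosing; loss of signal versus acetonitrile negative control. Primary screen in duplicate at 10 uM; actives re-run in concentration-response up to 20 uM.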

The nature of test [6]: TOX21_p53_BLA_p3_viability: Viability Assessment in the Tox21 HCT-116 p53 Agonism Beta-lactamase Assay, Phase 3 (AID 2283593; active = hit-call score of the fitted dose curve at least 0.9, where 1 is the maximum;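 note: cells exposed to compound for 16 h before reading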). The method, boiled down:
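HCT116 cells, 4000/well, dosed 5 h after plating by pin transfer (217-fold dilution from DMSO stock) and incubated 16 h at 37C, 5% CO2. Viability read as ATP luminescence with CellTiter-Glo after 30 min at room temperature.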

Read-out in test [7]: xenobiotic metabolism (CYP1A2), CYP1A2 (gene 1544)
Description: CLD_CYP1A2_48hr: CellzDirect (CLD) Gene Expression Assay for xenobiotic metabolism (CYP1A2) at 48 hours (AID 2283703; active = hit-call score of the fitted dose curve at least 0.9, where 1 is the maximum). The method, boiled down: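 Primary human hepatocytes from two donor preparations were dosed daily for two days at multiple concentrations in 0.2% DMSO vehicle. CYP1A2 mRNA was measured at 48 hours by chemiluminescent quantitative nuclease protection assay, with gain of signal fitted versus DMSO and cytotoxicity annotated from morphology.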

Test [8] in a line: CCTE_Shafer_MEA_dev_correlation_coefficient_mean: CCTE's Neural Network Formation Assay for Mean Correlation Coefficient, Shafer Lab (AID 2284093).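 Note: well mean pairwise spike train correlation integrated as AUC over recording days 5 to 12; potency fitted for loss of correlation relative to DMSO vehicle wells.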 Put shortly: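 Read-out: well-mean correlation coefficient of spike trains between electrode pairs, collapsed over four recording days as trapezoidal area-under-the-curve. Developing rat cortical neuron networks grown on MEAs received test chemical continuously from plating.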

Read-out in test [9]: Interferon-gamma inducible Protein 10 (IP10), CXCL10 (gene 3627)
Description: BSK_KF3CT_IP10: BioMAP Diversity Plus: KF3CT Assay for Interferon-gamma inducible Protein 10 (IP10) Biomarker Activity (AID 2283068). Particulars: actives raise or lower the signal; primary human keratinocytes with fibroblasts. The method, boiled down:
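KF3CT co-culture (keratinocytes + foreskin fibroblasts), 24 h compound, IP-10 by ELISA; bidirectional fit vs DMSO baseline.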

The nature of test [10]: CEETOX_H295R_OHPROG: CeeTox H295R High-throughput Steroidogenesis Assay for OH-Progesterone (OHPROG) (AID 2283435). To be noted: actives raise or lower the signal.
Read-out in test [11]: ABC Transporter (ABCC3), ABCC3 (gene 8714)
As to the kind of experiment: LTEA_HepaRG_ABCC3: Life Technologies and Expression Analysis (LTEA) Assay for ABC Transporter (ABCC3) using HepaRG (AID 2283462). To be noted: actives raise or lower the signal; mRNA level, 48 h. Put shortly: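 HepaRG cells in serum-free induction medium were exposed for 48 h in duplicate to 8-point half-log concentrations topping at 100 uM in 0.5% DMSO. ABCC3 mRNA was measured by qRT-PCR normalized to ACTB, GAPDH and POLR2A, with bidirectional fitting versus DMSO.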

For some assays here: Most of the hits are listed elsewhere, so they are rarer here than in the full data. Results filed as inconclusive are left out. This is a selection; strong and weak results do not stand in their true shares. The source holds several records for some structures; these can differ, active in one and inactive in another. Activity calls are given as the source filed them. Rule for the calls, unless noted: active = hit-call score of the fitted dose curve at least 0.9, where 1 is the maximum; inactive = score below 0.9.

What is called AC50 is the concentration at which the activity in the assay is half-maximal. On to `O=C1C2CC=CCC2C(=O)N1SC(Cl)(Cl)Cl` (stereo unspecified), for which the AC50 in test [1] is active: 11.2 µM; in test [2] it was active: 12.8 µM; in test [3], active: 13.2 µM; in test [5], active: 1.35 µM; in test [6] it was active: 11.4 µM; in test [8], active: 15.3 µM. Moreover, the result in [4] and in [7] was inactive.

Regarding `Cc1ccc(N)c(N)c1`, the result in test [9], in test [10] and in test [11] was inactive.

These data come from PubChem BioAssay (EPA / NIEHS).
